# ± gives the standard deviation of the averaged measurements. The entries are a selection whose mix differs from that of the whole data set.
# Legend:
# Test in all cases: NP40-soluble protein abundance relative to vehicle (solubility fold change) (ratio); higher = more soluble protein in presence of AMP-PNP
# [1] = molecular target: T1, UniProt Q8NCE2-2
# T1 sequence (whole entry): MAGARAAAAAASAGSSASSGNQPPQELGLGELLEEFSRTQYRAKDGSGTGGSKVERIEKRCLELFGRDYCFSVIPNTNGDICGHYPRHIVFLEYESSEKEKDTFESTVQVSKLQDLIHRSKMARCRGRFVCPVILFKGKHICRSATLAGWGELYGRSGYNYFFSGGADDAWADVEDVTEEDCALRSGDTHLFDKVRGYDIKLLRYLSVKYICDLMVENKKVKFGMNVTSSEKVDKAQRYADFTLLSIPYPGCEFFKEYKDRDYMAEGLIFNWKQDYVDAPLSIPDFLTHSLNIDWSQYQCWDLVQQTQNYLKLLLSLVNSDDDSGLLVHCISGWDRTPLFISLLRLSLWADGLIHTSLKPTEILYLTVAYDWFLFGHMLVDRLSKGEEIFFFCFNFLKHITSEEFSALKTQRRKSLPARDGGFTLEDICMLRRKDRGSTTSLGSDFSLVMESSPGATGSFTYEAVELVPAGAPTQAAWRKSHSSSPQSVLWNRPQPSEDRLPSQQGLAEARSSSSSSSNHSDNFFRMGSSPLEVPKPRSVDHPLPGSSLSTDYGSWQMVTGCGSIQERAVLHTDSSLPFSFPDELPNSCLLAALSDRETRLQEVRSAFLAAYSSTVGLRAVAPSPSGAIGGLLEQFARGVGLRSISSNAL
# Procedure, shortened: (§1)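 Data come from three independent experiments in which Dounce-homogenised Jurkat crude lysate was treated at eight concentrations from 0.1 to 10 mM. Treatment ran 10 min at room temperature and then 3 min at 37 °C, after which 0.8% NP40 and benzonase were added for 60 min at 4 °C before ultracentrifugation. The supernatant underwent TMT labelling and LC-MS/MS, and vsn-normalised intensities were expressed as fold change against the detergent-processed vehicle in each replicate.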
# [2] = molecular target: T2, UniProt Q8NE86 and related entries
# T2 sequence (whole entry): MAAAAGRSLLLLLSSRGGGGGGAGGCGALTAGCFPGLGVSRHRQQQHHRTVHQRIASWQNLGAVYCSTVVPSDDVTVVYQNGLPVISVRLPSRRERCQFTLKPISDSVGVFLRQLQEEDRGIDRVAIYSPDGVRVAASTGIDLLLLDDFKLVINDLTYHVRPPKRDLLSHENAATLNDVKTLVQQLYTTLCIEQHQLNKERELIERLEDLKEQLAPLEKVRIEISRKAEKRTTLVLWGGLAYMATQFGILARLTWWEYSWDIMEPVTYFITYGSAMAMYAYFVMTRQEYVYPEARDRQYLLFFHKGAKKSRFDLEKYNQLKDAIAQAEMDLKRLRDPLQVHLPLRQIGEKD
# Procedure, shortened: as §1
# [3] = molecular target: T3, UniProt Q8TB36 and related entries
# T3 sequence (whole entry): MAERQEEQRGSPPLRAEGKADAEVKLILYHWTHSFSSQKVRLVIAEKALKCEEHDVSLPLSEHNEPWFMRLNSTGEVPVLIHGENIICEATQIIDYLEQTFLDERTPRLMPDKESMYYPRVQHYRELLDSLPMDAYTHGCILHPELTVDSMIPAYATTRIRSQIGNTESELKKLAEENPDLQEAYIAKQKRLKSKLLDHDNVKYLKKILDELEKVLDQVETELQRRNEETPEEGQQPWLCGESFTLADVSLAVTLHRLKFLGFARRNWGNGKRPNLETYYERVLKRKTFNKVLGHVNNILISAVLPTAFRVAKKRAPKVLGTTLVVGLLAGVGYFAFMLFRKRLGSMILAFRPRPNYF
# Procedure, shortened: as §1
# [4] = molecular target: T4, UniProt Q8TB72-3
# T4 sequence (whole entry): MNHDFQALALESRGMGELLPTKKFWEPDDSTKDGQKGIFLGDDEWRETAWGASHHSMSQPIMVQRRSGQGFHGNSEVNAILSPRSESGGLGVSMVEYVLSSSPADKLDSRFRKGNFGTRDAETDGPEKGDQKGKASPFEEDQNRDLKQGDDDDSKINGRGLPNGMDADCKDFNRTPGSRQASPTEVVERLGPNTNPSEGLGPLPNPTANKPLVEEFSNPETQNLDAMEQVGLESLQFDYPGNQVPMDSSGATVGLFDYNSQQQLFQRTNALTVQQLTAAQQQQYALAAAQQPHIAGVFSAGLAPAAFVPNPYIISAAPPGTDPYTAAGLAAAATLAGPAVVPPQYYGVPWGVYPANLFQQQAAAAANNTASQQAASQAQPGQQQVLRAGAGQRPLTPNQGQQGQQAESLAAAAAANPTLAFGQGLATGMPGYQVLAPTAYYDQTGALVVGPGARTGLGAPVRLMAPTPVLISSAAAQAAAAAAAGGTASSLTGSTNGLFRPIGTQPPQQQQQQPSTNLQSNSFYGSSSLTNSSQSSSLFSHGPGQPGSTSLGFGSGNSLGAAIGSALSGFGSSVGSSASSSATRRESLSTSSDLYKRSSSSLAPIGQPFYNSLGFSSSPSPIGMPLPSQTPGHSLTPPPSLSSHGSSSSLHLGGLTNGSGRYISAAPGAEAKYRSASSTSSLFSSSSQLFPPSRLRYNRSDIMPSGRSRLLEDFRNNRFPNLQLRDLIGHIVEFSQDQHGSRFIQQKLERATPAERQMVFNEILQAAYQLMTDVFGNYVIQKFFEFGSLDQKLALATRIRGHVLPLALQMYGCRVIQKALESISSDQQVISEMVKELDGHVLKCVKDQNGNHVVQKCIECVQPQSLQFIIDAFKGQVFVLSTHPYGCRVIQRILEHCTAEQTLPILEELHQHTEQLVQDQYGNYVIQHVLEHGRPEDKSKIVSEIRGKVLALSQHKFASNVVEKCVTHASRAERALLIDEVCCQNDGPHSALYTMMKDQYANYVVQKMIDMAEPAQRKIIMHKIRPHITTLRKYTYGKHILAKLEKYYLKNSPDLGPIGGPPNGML
# Procedure, shortened: as §1
# [5] = molecular target: T5, UniProt Q8TBA6 and related entries
# T5 sequence (whole entry): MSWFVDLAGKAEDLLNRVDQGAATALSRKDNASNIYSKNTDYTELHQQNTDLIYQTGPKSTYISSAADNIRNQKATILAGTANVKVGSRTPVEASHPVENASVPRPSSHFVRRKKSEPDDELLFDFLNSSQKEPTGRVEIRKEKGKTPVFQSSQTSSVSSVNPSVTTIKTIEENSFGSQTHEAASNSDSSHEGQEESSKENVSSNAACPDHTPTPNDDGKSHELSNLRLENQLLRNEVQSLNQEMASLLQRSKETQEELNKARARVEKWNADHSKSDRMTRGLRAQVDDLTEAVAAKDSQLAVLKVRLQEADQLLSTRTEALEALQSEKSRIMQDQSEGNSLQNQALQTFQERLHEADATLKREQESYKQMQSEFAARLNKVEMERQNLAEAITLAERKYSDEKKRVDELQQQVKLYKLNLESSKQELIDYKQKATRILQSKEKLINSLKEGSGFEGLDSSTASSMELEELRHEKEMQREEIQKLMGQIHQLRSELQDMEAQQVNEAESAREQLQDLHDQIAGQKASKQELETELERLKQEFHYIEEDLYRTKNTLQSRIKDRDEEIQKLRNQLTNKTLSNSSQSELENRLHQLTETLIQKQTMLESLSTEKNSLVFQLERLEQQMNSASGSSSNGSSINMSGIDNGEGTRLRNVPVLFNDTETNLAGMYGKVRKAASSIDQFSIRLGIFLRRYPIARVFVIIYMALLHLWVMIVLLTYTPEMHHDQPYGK
# Procedure, shortened: as §1
# [6] = molecular target: T6, UniProt Q8TD55 and related entries
# T6 sequence (whole entry): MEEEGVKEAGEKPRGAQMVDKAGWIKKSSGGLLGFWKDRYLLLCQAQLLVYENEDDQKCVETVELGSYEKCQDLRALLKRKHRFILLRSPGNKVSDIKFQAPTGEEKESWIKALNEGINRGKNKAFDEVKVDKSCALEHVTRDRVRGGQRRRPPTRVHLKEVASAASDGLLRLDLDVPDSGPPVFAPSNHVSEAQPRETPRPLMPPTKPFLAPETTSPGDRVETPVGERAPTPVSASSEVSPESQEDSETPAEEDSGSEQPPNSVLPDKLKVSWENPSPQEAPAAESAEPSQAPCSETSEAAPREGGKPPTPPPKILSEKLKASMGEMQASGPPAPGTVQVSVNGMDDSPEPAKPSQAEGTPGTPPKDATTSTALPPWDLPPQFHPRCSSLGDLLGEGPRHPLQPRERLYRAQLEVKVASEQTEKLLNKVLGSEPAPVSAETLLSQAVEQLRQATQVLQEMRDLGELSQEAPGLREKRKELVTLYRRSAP
# Procedure, shortened: as §1
# [7] = molecular target: T7, UniProt Q8WX93 and related entries; conditions: concentration: 1mM
# T7 sequence (whole entry): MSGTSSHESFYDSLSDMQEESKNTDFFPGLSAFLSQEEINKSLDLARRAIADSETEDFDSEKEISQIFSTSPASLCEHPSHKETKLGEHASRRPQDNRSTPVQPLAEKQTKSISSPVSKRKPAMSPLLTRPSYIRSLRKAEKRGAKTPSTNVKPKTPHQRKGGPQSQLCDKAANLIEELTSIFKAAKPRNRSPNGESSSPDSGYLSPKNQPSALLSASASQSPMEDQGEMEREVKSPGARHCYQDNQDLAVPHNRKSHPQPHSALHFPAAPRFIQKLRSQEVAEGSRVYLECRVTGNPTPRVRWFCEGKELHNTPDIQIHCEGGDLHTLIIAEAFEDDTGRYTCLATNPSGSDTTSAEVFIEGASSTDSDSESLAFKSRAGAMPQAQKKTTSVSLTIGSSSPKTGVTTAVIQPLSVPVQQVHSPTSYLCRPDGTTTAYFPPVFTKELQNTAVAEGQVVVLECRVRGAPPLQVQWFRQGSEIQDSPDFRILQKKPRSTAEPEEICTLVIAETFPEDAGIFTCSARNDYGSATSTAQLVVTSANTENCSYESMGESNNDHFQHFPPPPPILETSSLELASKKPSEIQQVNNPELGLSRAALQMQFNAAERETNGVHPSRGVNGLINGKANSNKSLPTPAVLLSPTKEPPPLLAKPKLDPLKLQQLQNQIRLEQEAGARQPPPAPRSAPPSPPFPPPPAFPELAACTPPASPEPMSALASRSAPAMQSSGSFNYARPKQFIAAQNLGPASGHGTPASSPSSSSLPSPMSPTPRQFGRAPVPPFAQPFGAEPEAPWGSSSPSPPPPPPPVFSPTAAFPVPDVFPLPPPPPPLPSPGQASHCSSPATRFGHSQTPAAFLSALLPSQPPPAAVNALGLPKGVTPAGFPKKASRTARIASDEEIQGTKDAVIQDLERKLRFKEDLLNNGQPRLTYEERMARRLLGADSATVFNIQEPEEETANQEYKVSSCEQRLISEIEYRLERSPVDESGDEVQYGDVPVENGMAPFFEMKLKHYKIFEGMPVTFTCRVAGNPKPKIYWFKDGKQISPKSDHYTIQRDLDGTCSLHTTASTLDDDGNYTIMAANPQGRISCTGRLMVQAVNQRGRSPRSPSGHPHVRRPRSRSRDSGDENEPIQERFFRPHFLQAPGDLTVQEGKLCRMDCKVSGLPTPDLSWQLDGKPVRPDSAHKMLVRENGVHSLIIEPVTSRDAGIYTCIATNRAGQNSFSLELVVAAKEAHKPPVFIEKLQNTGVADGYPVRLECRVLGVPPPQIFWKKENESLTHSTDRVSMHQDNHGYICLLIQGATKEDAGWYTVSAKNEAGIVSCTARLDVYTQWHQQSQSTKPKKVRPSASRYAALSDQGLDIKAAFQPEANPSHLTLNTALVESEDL
# Procedure, shortened: as §1
compound,measurement,setting,value
Nc1ncnc2c1ncn2[C@@H]1O[C@H](COP(=O)(O)OP(=O)(O)NP(=O)(O)O)[C@@H](O)[C@H]1O [adenylyl imidodiphosphate],NP40-soluble protein abundance,[1]; concentration: 6mM,1.01 ± 0.044
same,NP40-soluble protein abundance,[1]; concentration: 8mM,1.02 ± 0.061
same,NP40-soluble protein abundance,[1]; concentration: 10mM,1.03 ± 0.059
same,NP40-soluble protein abundance,[2]; concentration: 1mM,0.984 ± 0.034
same,NP40-soluble protein abundance,[2]; concentration: 2mM,0.959 ± 0.051
same,NP40-soluble protein abundance,[2]; concentration: 4mM,1.02 ± 0.044
same,NP40-soluble protein abundance,[2]; concentration: 6mM,0.972 ± 0.011
same,NP40-soluble protein abundance,[2]; concentration: 8mM,1 ± 0.015
same,NP40-soluble protein abundance,[2]; concentration: 10mM,0.922 ± 0.027
same,NP40-soluble protein abundance,[3]; concentration: 1mM,0.934 ± 0.06
same,NP40-soluble protein abundance,[3]; concentration: 2mM,0.96 ± 0.061
same,NP40-soluble protein abundance,[3]; concentration: 4mM,0.945 ± 0.042
same,NP40-soluble protein abundance,[3]; concentration: 6mM,0.995 ± 0.055
same,NP40-soluble protein abundance,[3]; concentration: 8mM,1.01 ± 0.02
same,NP40-soluble protein abundance,[3]; concentration: 10mM,0.963 ± 0.048
same,NP40-soluble protein abundance,[4]; concentration: 1mM,1.02 ± 0.045
same,NP40-soluble protein abundance,[4]; concentration: 2mM,1.04 ± 0.022
same,NP40-soluble protein abundance,[4]; concentration: 4mM,1.01 ± 0.058
same,NP40-soluble protein abundance,[4]; concentration: 6mM,0.993 ± 0.03
same,NP40-soluble protein abundance,[4]; concentration: 8mM,0.965 ± 0.035
same,NP40-soluble protein abundance,[4]; concentration: 10mM,1.02 ± 0.071
same,NP40-soluble protein abundance,[5]; concentration: 1mM,1.007 ± 0.0093
same,NP40-soluble protein abundance,[5]; concentration: 2mM,1.06 ± 0.071
same,NP40-soluble protein abundance,[5]; concentration: 4mM,1.02 ± 0.021
same,NP40-soluble protein abundance,[5]; concentration: 6mM,1.001 ± 0.0074
same,NP40-soluble protein abundance,[5]; concentration: 8mM,0.953 ± 0.025
same,NP40-soluble protein abundance,[5]; concentration: 10mM,0.976 ± 0.017
same,NP40-soluble protein abundance,[6]; concentration: 1mM,1.008 ± 0.0066
same,NP40-soluble protein abundance,[6]; concentration: 2mM,1.06 ± 0.059
same,NP40-soluble protein abundance,[6]; concentration: 4mM,0.9964 ± 0.0068
same,NP40-soluble protein abundance,[6]; concentration: 6mM,0.983 ± 0.013
same,NP40-soluble protein abundance,[6]; concentration: 8mM,0.973 ± 0.013
same,NP40-soluble protein abundance,[6]; concentration: 10mM,0.989 ± 0.023
same,NP40-soluble protein abundance,[7],1.045 ± 0.0064

# Quoted at random: 2 records from the list.
compound,measurement,setting,value
Nc1ncnc2c1ncn2[C@@H]1O[C@H](COP(=O)(O)OP(=O)(O)NP(=O)(O)O)[C@@H](O)[C@H]1O [adenylyl imidodiphosphate],NP40-soluble protein abundance,[2]; concentration: 10mM,0.922 ± 0.027
same,NP40-soluble protein abundance,[4]; concentration: 6mM,0.993 ± 0.03

# From the supplement of paper PMC6411743
